Measurements reported in PubChem BioAssay AID1259405 (NCATS, 2018)

Purpose: 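Mouse-designed siRNAs used to find CHO productivity engineering targets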 (primary screen)
Cell system: Chinese hamster CHO-K1 ovary cells with stable secreted eGFP expression
Reagent: single siRNA against mouse genes, 0.8 pmol siRNA per well (2 µl of 400 nM stock)
Timing: 3 days
Read-out: 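Percent of the per-plate non-targeting control median for intracellular GFP per well by laser scanning cytometry and for cell viability by ATP luminescence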
Reading the numbers: GFP, % of control: higher = more GFP per well, higher productivity; viability (ATP), % of control: higher = more viable cells (more ATP)
Active means: 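Called active when intracellular GFP, relative to negative control, is at or above 120%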
Shown is one part, drawn at random, of about 50,000 reagents tested. About 4,000 of all reagents (8%) count as active. 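Mouse siRNA library applied to hamster cells; one well for each siRNA.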 Unmarked entries are inactive. Reagents against one gene are numbered here. No sequences are given here.

With knock-down of Tmem128 #1, the screen gave GFP, % of control 60.3; viability (ATP), % of control 96.5. Depletion of Tmem128 #2 came out at: GFP, % of control 56.8; viability (ATP), % of control 74.5. Against Tmem128 #3 the deposit lists GFP, % of control 68.6; viability (ATP), % of control 69.3. Depletion of Arl8a #1 came out at: GFP, % of control 90.7; viability (ATP), % of control 60.8. Arl8a #2 scored GFP, % of control 52.6; viability (ATP), % of control 66.9. Silencing of Arl8a #3 resulted in: GFP, % of control 64.2; viability (ATP), % of control 44.3.

Clu #1 gave GFP, % of control 89.2; viability (ATP), % of control 96.8. Depletion of Clu #2 came out at: GFP, % of control 51.4; viability (ATP), % of control 79.2. Depletion of Clu #3 gave: GFP, % of control 68.6; viability (ATP), % of control 91.2. Silencing of Adipoq #1 resulted in: GFP, % of control 67.8; viability (ATP), % of control 88.1. Adipoq #2 gave GFP, % of control 80.9; viability (ATP), % of control 94.6. With knock-down of Bbs4 #1, the record shows GFP, % of control 63.9; viability (ATP), % of control 66.

Knock-down of Bbs4 #2 resulted in: GFP, % of control 73.6; viability (ATP), % of control 83.6. After knock-down of Bbs4 #3 the results were GFP, % of control 55.3; viability (ATP), % of control 53.7. Depletion of Szt2 #1 gave: GFP, % of control 34.4; viability (ATP), % of control 72.4. Knock-down of Szt2 #2 came out at: GFP, % of control 64.9; viability (ATP), % of control 94.6. Szt2 #3 showed GFP, % of control 160 (active); viability (ATP), % of control 150. For Gsto1 #1, the values are GFP, % of control 154 (active); viability (ATP), % of control 120.

Gsto1 #2 scored GFP, % of control 57.6; viability (ATP), % of control 98.7. Against Gsto1 #3, the entry reads GFP, % of control 117; viability (ATP), % of control 112. Against Or7e168 #1 the deposit lists GFP, % of control 163 (active); viability (ATP), % of control 74.1. Silencing of Or7e168 #2 resulted in: GFP, % of control 117; viability (ATP), % of control 53.8. Or7e168 #3 gave GFP, % of control 109; viability (ATP), % of control 67.1. For Ubqln2 #1 the deposit lists GFP, % of control 68.4; viability (ATP), % of control 65.

Silencing of Ubqln2 #2 resulted in: GFP, % of control 150 (active); viability (ATP), % of control 59.9. Knock-down of Ubqln2 #3 resulted in: GFP, % of control 87.3; viability (ATP), % of control 92.1. For Rhox6 #1, the entry reads GFP, % of control 54.9; viability (ATP), % of control 60.4. With knock-down of Rhox6 #2 the results were GFP, % of control 27; viability (ATP), % of control 31.1. Depletion of Rhox6 #3 gave: GFP, % of control 125 (active); viability (ATP), % of control 112. Knock-down of Hp1bp3 #1 resulted in: GFP, % of control 51.5; viability (ATP), % of control 75.5.

For Hp1bp3 #2, the values are GFP, % of control 90.6; viability (ATP), % of control 80.5. Hp1bp3 #3 showed GFP, % of control 96.1; viability (ATP), % of control 87.7. After knock-down of Or51a6 #1, the screen gave GFP, % of control 78.1; viability (ATP), % of control 78. Knock-down of Or51a6 #2 came out at: GFP, % of control 87.3; viability (ATP), % of control 70.1. Or51a6 #3 scored GFP, % of control 68.1; viability (ATP), % of control 120. Against Zdhhc1 #1 the deposit lists GFP, % of control 65.9; viability (ATP), % of control 60.3.

After knock-down of Zdhhc1 #2, the screen gave GFP, % of control 59.4; viability (ATP), % of control 64.4. For Zdhhc1 #3, the entry reads GFP, % of control 85.6; viability (ATP), % of control 105. Knock-down of Stim2 #1 resulted in: GFP, % of control 67.4; viability (ATP), % of control 72.2. Against Stim2 #2, the values are GFP, % of control 65.2; viability (ATP), % of control 49.5. Stim2 #3 scored GFP, % of control 65; viability (ATP), % of control 65.1.
